Measurements reported in PubChem BioAssay AID686943 (Drosophila RNAi Screening Center, 2013)

- Purpose: 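Search across the genome for regulators of signalling from receptor tyrosine kinase to ERK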 (primary screen)
- Cells: Drosophila S2R+ haemocyte-like cells expressing YFP-tagged ERK (Rolled)
- Reagent: long dsRNA against Drosophila genes
- Conditions: insulin stimulation versus unstimulated cells; dose and duration not given
- Measured: 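Antibody staining for doubly phosphorylated ERK divided by ERK-YFP signal, as plate z-scores, in insulin-treated and untreated cells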
- Reading the numbers: replicate 1, z-score of dpERK with insulin: higher = more active ERK per ERK-YFP after insulin
In all, the deposit lists about 23,000 reagents; shown is an unselected part of those with a known target gene and a result. 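Extra replicates exist only for a retested subset of genes; insulin dose and duration not given; both raised and lowered dpERK matter.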 Further read-outs or replicates are left out here. Not given: the amount of reagent, the time to read-out.

After knock-down of Ir8a (Ionotropic receptor 8a) [DRSC17817] the results were replicate 1, z-score of dpERK with insulin -0.42.
For Ir8a (Ionotropic receptor 8a) [DRSC17869], the values are replicate 1, z-score of dpERK with insulin -0.03.
For Lint-O (L(3)mbt interactor in ovarian somatic cells) [DRSC18468], the entry reads replicate 1, z-score of dpERK with insulin 2.94.
For Atg8b (Autophagy-related 8b) [DRSC14501] the deposit lists replicate 1, z-score of dpERK with insulin 1.33.
thw (thawb) [DRSC12552] showed replicate 1, z-score of dpERK with insulin 0.66.
With knock-down of CG33137 [DRSC22131], the screen gave replicate 1, z-score of dpERK with insulin 0.44.
For CG11596 [DRSC18540], the entry reads replicate 1, z-score of dpERK with insulin -0.22.
CG13587 [DRSC04223] showed replicate 1, z-score of dpERK with insulin -0.47.
Silencing of CG12608 [DRSC19472] came out at: replicate 1, z-score of dpERK with insulin 0.74.
For Jasper (JIL-1 anchoring and stabilizing protein) [DRSC16352], the entry reads replicate 1, z-score of dpERK with insulin 1.73.
lectin-28C [DRSC03010] scored replicate 1, z-score of dpERK with insulin 0.14.
With knock-down of Qsox3 (Quiescin sulfhydryl oxidase 3) [DRSC16096] the results were replicate 1, z-score of dpERK with insulin 0.13.
Knock-down of CG31465 [DRSC16090] gave: replicate 1, z-score of dpERK with insulin -0.53.
With knock-down of atl (atlastin) [DRSC16089], the screen gave replicate 1, z-score of dpERK with insulin 1.61.
Depletion of CG12935 [DRSC06248] gave: replicate 1, z-score of dpERK with insulin -0.13.
Against Frq2 (Frequenin 2) [DRSC20245], the entry reads replicate 1, z-score of dpERK with insulin -0.08.
ND-B14 (NADH dehydrogenase (ubiquinone) B14 subunit) [DRSC07029] scored replicate 1, z-score of dpERK with insulin -1.07.
CG42531 [DRSC05318] scored replicate 1, z-score of dpERK with insulin -0.95.
For CG12984 [DRSC11693], the values are replicate 1, z-score of dpERK with insulin 0.57.
Depletion of Alg2 (ALG2, alpha-1,3/1,6-mannosyltransferase) [DRSC08298] resulted in: replicate 1, z-score of dpERK with insulin -1.07.
For CG13287 [DRSC09961] the deposit lists replicate 1, z-score of dpERK with insulin -1.26.
Silencing of Cyp12c1 (Cytochrome P450 12c1) [DRSC11125] gave: replicate 1, z-score of dpERK with insulin -0.52.
Silencing of CG10863 [DRSC08145] gave: replicate 1, z-score of dpERK with insulin 0.6.
Depletion of msd1 (mitotic spindle density 1) [DRSC08383] resulted in: replicate 1, z-score of dpERK with insulin 0.08.
For Ugt35E1 (UDP-glycosyltransferase family 35 member E1) [DRSC15193] the deposit lists replicate 1, z-score of dpERK with insulin 0.12.
After knock-down of CG7997 [DRSC07052], the record shows replicate 1, z-score of dpERK with insulin -0.21.
For Gpb5 (Glycoprotein hormone beta 5) [DRSC21241] the deposit lists replicate 1, z-score of dpERK with insulin 0.21.
CG14383 [DRSC14841] showed replicate 1, z-score of dpERK with insulin 0.63.
After knock-down of aus (argus) [DRSC13471], the record shows replicate 1, z-score of dpERK with insulin 1.25.
Knock-down of aus (argus) [DRSC13473] gave: replicate 1, z-score of dpERK with insulin 1.72.
With knock-down of aus (argus) [DRSC15157], the screen gave replicate 1, z-score of dpERK with insulin -0.92.
Against AQP (aquaporin) [DRSC06122], the values are replicate 1, z-score of dpERK with insulin -0.3.
Knock-down of S-Lap4 (Sperm-Leucylaminopeptidase 4) [DRSC10957] gave: replicate 1, z-score of dpERK with insulin -0.78.
Against CG13311 [DRSC09982], the entry reads replicate 1, z-score of dpERK with insulin 0.96.
CG14803 [DRSC18556] scored replicate 1, z-score of dpERK with insulin 0.17.
Silencing of CG14868 [DRSC14991] came out at: replicate 1, z-score of dpERK with insulin 1.51.
With knock-down of TpnC73F (Troponin C at 73F) [DRSC11307], the record shows replicate 1, z-score of dpERK with insulin 0.09.
CG4658 [DRSC02768] gave replicate 1, z-score of dpERK with insulin -0.85.
With knock-down of CG8813 [DRSC00706], the screen gave replicate 1, z-score of dpERK with insulin -0.75.
With knock-down of CG13442 [DRSC06402], the record shows replicate 1, z-score of dpERK with insulin -0.85.

No new results follow: entries from further up.
atl (atlastin) [DRSC16089]: replicate 1, z-score of dpERK with insulin = 1.61
CG12935 [DRSC06248]: replicate 1, z-score of dpERK with insulin = -0.13
Frq2 (Frequenin 2) [DRSC20245]: replicate 1, z-score of dpERK with insulin = -0.08
ND-B14 (NADH dehydrogenase (ubiquinone) B14 subunit) [DRSC07029]: replicate 1, z-score of dpERK with insulin = -1.07
CG42531 [DRSC05318]: replicate 1, z-score of dpERK with insulin = -0.95
